# Laboratory results: the supplement of paper PMC10032668
# Sequences of proteins named here, by UniProt entry; tags and fusion partners are left off.
# COIL, P38432, UniProt P38432, whole entry: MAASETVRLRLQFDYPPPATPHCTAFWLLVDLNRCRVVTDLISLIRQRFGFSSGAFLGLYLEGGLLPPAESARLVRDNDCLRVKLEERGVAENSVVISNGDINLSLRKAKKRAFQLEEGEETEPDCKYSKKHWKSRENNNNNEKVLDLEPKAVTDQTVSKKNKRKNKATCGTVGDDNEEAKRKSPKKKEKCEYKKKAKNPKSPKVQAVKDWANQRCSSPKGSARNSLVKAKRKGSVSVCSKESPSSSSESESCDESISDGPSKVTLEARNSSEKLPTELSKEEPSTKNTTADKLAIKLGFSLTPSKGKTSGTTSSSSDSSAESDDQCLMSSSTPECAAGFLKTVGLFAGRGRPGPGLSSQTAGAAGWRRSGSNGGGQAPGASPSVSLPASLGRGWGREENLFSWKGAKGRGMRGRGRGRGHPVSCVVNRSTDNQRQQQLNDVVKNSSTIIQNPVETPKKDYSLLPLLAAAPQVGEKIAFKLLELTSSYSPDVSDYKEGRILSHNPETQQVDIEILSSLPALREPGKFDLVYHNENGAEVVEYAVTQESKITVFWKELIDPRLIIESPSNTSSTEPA
# PFN1, P07737, UniProt P07737, whole entry: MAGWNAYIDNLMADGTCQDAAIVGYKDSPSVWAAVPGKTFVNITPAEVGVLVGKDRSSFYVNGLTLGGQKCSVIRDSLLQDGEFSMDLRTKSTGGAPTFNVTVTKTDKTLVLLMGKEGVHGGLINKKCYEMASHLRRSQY
# PDLIM7, Q9NR12, UniProt Q9NR12, whole entry: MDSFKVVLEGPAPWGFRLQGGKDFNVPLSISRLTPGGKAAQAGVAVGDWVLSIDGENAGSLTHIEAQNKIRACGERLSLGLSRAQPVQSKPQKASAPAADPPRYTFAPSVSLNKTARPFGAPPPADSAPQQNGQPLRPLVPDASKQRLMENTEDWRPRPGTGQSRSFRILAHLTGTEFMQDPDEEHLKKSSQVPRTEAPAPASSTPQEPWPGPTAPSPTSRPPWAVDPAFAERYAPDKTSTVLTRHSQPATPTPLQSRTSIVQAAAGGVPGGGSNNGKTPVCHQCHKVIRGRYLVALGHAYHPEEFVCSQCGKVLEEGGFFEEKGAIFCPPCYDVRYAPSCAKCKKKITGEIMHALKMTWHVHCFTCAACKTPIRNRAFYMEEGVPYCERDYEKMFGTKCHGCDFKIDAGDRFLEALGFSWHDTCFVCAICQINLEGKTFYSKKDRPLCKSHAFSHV
# TUBB2A, Q13885, UniProt Q13885, whole entry: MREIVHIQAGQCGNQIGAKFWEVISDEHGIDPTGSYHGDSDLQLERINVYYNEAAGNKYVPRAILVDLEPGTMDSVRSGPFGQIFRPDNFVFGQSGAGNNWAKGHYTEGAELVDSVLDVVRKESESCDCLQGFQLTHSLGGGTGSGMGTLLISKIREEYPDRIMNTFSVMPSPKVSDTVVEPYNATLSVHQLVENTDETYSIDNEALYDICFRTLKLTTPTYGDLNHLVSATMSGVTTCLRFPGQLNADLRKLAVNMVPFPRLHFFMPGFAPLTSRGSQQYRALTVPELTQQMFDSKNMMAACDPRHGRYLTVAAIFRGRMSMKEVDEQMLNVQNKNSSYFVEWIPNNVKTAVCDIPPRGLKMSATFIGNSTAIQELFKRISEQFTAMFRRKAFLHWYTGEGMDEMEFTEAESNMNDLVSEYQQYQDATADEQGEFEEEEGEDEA
# Some of the results follow. Only hits are listed; about a third recur on repeated control peptides.
# Tests used:
# Experiment in all cases: PRISMA enrichment of interactor (LFQ) in peptide spot vs all other peptide spots (log2 fold change); higher = stronger / more specific binding of the interactor to the peptide
# [1] = molecular target: ACAT1, P24752
# Protocol: (§1)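 PRISMA: 15-aa overlapping tiles (offset 8 aa) of 60 microproteins, plus SOS1/GLUT1 control peptides, were spot-synthesized on cellulose membranes in triplicate. Membranes were incubated with benzonase-treated HEK293T lysate, and bound proteins were identified by LC-MS/MS with LFQ. Enrichment is the log2 fold change of each protein in one spot versus all other spots. Only interactors passing the significance cutoff are listed.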
# [2] = molecular target: HAGH, Q16775
# Protocol: as §1
# [3] = molecular target: HSDL2, Q6YN16
# Protocol: as §1
# [4] = molecular target: SEC61G, P60059
# Protocol: as §1
# [5] = molecular target: TRAF7, Q6Q0C0
# Protocol: as §1
# [6] = molecular target: TTC21B, Q7Z4L5
# Protocol: as §1
# [7] = molecular target: WDR74, Q6RFH5
# Protocol: as §1
# [8] = molecular target: ZNF638, Q14966
# Protocol: as §1
# [9] = molecular target: ACIN1, Q9UKV3
# Protocol: as §1
# [10] = molecular target: ACLY, P53396
# Protocol: as §1
# [11] = molecular target: CDC45, O75419
# Protocol: as §1
# [12] = molecular target: CENPB, P07199
# Protocol: as §1
# [13] = molecular target: CLNS1A, P54105
# Protocol: as §1
# [14] = molecular target: COA6, Q5JTJ3
# Protocol: as §1
# [15] = molecular target: COIL, P38432
# Protocol: as §1
# [16] = molecular target: DIS3, Q9Y2L1
# Protocol: as §1
# [17] = molecular target: FAM98B, Q52LJ0
# Protocol: as §1
# [18] = molecular target: GDI2, P50395
# Protocol: as §1
# [19] = molecular target: MLEC, Q14165
# Protocol: as §1
# [20] = molecular target: NEK7, Q8TDX7
# Protocol: as §1
# [21] = molecular target: NOL9, Q5SY16
# Protocol: as §1
# [22] = molecular target: NOP56, O00567
# Protocol: as §1
# [23] = molecular target: PFKP, Q01813
# Protocol: as §1
# [24] = molecular target: PFN1, P07737
# Protocol: as §1
# [25] = molecular target: PRDX3, P30048
# Protocol: as §1
# [26] = molecular target: PSMB5, P28074
# Protocol: as §1
# [27] = molecular target: PSMG1, O95456
# Protocol: as §1
# [28] = molecular target: RAB2A, P61019
# Protocol: as §1
# [29] = molecular target: RRP7A, Q9Y3A4
# Protocol: as §1
# [30] = molecular target: RTRAF, Q9Y224
# Protocol: as §1
# [31] = molecular target: SF1, Q15637
# Protocol: as §1
# [32] = molecular target: SRSF11, Q05519
# Protocol: as §1
# [33] = molecular target: SRSF2, Q01130
# Protocol: as §1
# [34] = molecular target: XRN2, Q9H0D6
# Protocol: as §1
# [35] = molecular target: ZNF687, Q8N1G0
# Protocol: as §1
# [36] = molecular target: HERC5, Q9UII4
# Protocol: as §1
# [37] = molecular target: PDLIM7, Q9NR12
# Protocol: as §1
# [38] = molecular target: RANBP3, Q9H6Z4
# Protocol: as §1
# [39] = molecular target: RRS1, Q15050
# Protocol: as §1
# [40] = molecular target: TUBB2A, Q13885
# Protocol: as §1
binder,measurement,setting,value
SFSPGGRSWCRRADA [CTD-2366F13.1],PRISMA enrichment of interactor (log2),[1],7.58
same,PRISMA enrichment of interactor (log2),[2],6.31
same,PRISMA enrichment of interactor (log2),[3],4.86
same,PRISMA enrichment of interactor (log2),[4],4.47
same,PRISMA enrichment of interactor (log2),[5],5.83
same,PRISMA enrichment of interactor (log2),[6],5.38
same,PRISMA enrichment of interactor (log2),[7],5.04
same,PRISMA enrichment of interactor (log2),[8],5.08
FQKEDVVSLLHQAEV [PSMB8-AS1],PRISMA enrichment of interactor (log2),[9],5.34
same,PRISMA enrichment of interactor (log2),[10],5.64
same,PRISMA enrichment of interactor (log2),[11],4.6
same,PRISMA enrichment of interactor (log2),[12],5.44
same,PRISMA enrichment of interactor (log2),[13],7.69
same,PRISMA enrichment of interactor (log2),[14],6.84
same,PRISMA enrichment of interactor (log2),[15],8.6
same,PRISMA enrichment of interactor (log2),[16],5.95
same,PRISMA enrichment of interactor (log2),[17],7.31
same,PRISMA enrichment of interactor (log2),[18],6.38
same,PRISMA enrichment of interactor (log2),[19],11.9
same,PRISMA enrichment of interactor (log2),[20],4.7
same,PRISMA enrichment of interactor (log2),[21],5.6
same,PRISMA enrichment of interactor (log2),[22],7.26
same,PRISMA enrichment of interactor (log2),[23],6.83
same,PRISMA enrichment of interactor (log2),[24],5.92
same,PRISMA enrichment of interactor (log2),[25],7.98
same,PRISMA enrichment of interactor (log2),[26],7.91
same,PRISMA enrichment of interactor (log2),[27],7.14
same,PRISMA enrichment of interactor (log2),[28],5.51
same,PRISMA enrichment of interactor (log2),[29],5.56
same,PRISMA enrichment of interactor (log2),[30],8
same,PRISMA enrichment of interactor (log2),[31],4.93
same,PRISMA enrichment of interactor (log2),[32],6.94
same,PRISMA enrichment of interactor (log2),[33],5.5
same,PRISMA enrichment of interactor (log2),[34],5.6
same,PRISMA enrichment of interactor (log2),[35],5.37
RNLPDDPECSPPTFP [RP11-432J24.5_2],PRISMA enrichment of interactor (log2),[1],8.81
same,PRISMA enrichment of interactor (log2),[36],4.54
same,PRISMA enrichment of interactor (log2),[37],6.22
same,PRISMA enrichment of interactor (log2),[38],8.12
same,PRISMA enrichment of interactor (log2),[39],6.35
same,PRISMA enrichment of interactor (log2),[40],6.91

# Pulled one by one from the entries so far (2):
binder,measurement,setting,value
FQKEDVVSLLHQAEV [PSMB8-AS1],PRISMA enrichment of interactor (log2),[13],7.69
same,PRISMA enrichment of interactor (log2),[28],5.51
